The record followed here is patent US20210206817A1 (priority 2014, published 2021).

This series can be described thus: general procedure: Fmoc solid-phase peptide synthesis; Wang resin; HBTU/HOBt/DIPEA. Conditions: whole synthesis; for final HPLC purity: 220 nm; for isolated mass / isolated yield: scale 15 μmol.

Turning to “CF3(CF2)7(CH2)2C(O)-Lys-Phe-Arg-Arg-Gln-Arg-Pro-Arg-Leu-Ser-His-Lys-Gly-Pro-Met-Pro-Phe-OH”, the “final HPLC purity” value is listed as over 98%, the isolated mass was 20.6 mg and the isolated yield turned out to be 49%.

Consider “CH3(CH2)14C(O)-Lys-Phe-Arg-Arg-Gln-Arg-Pro-Arg-Leu-Ser-His-Lys-Gly-Pro-Met-Pro-Phe-OH”, for which the “final HPLC purity” value is over 98%, the isolated mass stood at 7.5 mg and the isolated yield worked out at 16%.
